Paper PMC6821171

Target: HBF (His6-biotinylation sequence-FLAG tag)-LYAR (human) (UniProt Q9NX58)
Experiment: affinity purification with mass spectrometry; HBF-LYAR as bait; sequential two-step pulldown (Ni-NTA pulldown, RNase A treatment, FLAG pulldown) from nuclear extract of HBF-LYAR-TO cells treated with Dox for 24 h; SDS-PAGE, in-gel digestion with trypsin and Lys-C, nano LC-MS/MS; T-REx 293 cells as control

| Binder | binding |
| --- | --- |
| AF4/FMR2 family member 4 (protein, UniProt Q9UHB7 1-1163) MNREDRNVLRMKERERRNQEIQQGEDAFPPSSPLFAEPYKVTSKEDKLSSRIQSMLGNYDEMKDFIGDRSIPKLVAIPKPTVPPSADEKSNPNFFEQRHGGSHQSSKWTPVGPAPSTSQSQKRSSGLQSGHSSQRTSAGSSSGTNSSGQRHDRESYNNSGSSSRKKGQHGSEHSKSRSSSPGKPQAVSSLNSSHSRSHGNDHHSKEHQRSKSPRDPDANWDSPSRVPFSSGQHSTQSFPPSLMSKSNSMLQKPTAYVRPMDGQESMEPKLSSEHYSSQSHGNSMTELKPSSKAHLTKLKIPSQPLDASASGDVSCVDEILKEMTHSWPPPLTAIHTPCKTEPSKFPFPTKESQQSNFGTGEQKRYNPSKTSNGHQSKSMLKDDLKLSSSEDSDGEQDCDKTMPRSTPGSNSEPSHHNSEGADNSRDDSSSHSGSESSSGSDSESESSSSDSEANEPSQSASPEPEPPPTNKWQLDNWLNKVNPHKVSPASSVDSNIPSSQGYKKEGREQGTGNSYTDTSGPKETSSATPGRDSKTIQKGSESGRGRQKSPAQSDSTTQRRTVGKKQPKKAEKAAAEEPRGGLKIESETPVDLASSMPSSRHKAATKGSRKPNIKKESKSSPRPTAEKKKYKSTSKSSQKSREIIETDTSSSDSDESESLPPSSQTPKYPESNRTPVKPSSVEEEDSFFRQRMFSPMEEKELLSPLSEPDDRYPLIVKIDLNLLTRIPGKPYKETEPPKGEKKNVPEKHTREAQKQASEKVSNKGKRKHKNEDDNRASESKKPKTEDKNSAGHKPSSNRESSKQSAAKEKDLLPSPAGPVPSKDPKTEHGSRKRTISQSSSLKSSSNSNKETSGSSKNSSSTSKQKKTEGKTSSSSKEVKEKAPSSSSNCPPSAPTLDSSKPRRTKLVFDDRNYSADHYLQEAKKLKHNADALSDRFEKAVYYLDAVVSFIECGNALEKNAQESKSPFPMYSETVDLIKYTMKLKNYLAPDATAADKRLTVLCLRCESLLYLRLFKLKKENALKYSKTLTEHLKNSYNNSQAPSPGLGSKAVGMPSPVSPKLSPGNSGNYSSGASSASASGSSVTIPQKIHQMAASYVQVTSNFLYATEIWDQAEQLSKEQKEFFAELDKVMGPLIFNASIMTDLVRYTRQGLHWLRQDAKLIS | binds |
| DNA-binding protein SATB2 (protein, UniProt Q9UPW6 1-733) MERRSESPCLRDSPDRRSGSPDVKGPPPVKVARLEQNGSPMGARGRPNGAVAKAVGGLMIPVFCVVEQLDGSLEYDNREEHAEFVLVRKDVLFSQLVETALLALGYSHSSAAQAQGIIKLGRWNPLPLSYVTDAPDATVADMLQDVYHVVTLKIQLQSCSKLEDLPAEQWNHATVRNALKELLKEMNQSTLAKECPLSQSMISSIVNSTYYANVSATKCQEFGRWYKKYKKIKVERVERENLSDYCVLGQRPMHLPNMNQLASLGKTNEQSPHSQIHHSTPIRNQVPALQPIMSPGLLSPQLSPQLVRQQIAMAHLINQQIAVSRLLAHQHPQAINQQFLNHPPIPRAVKPEPTNSSVEVSPDIYQQVRDELKRASVSQAVFARVAFNRTQGLLSEILRKEEDPRTASQSLLVNLRAMQNFLNLPEVERDRIYQDERERSMNPNVSMVSSASSSPSSSRTPQAKTSTPTTDLPIKVDGANINITAAIYDEIQQEMKRAKVSQALFAKVAANKSQGWLCELLRWKENPSPENRTLWENLCTIRRFLNLPQHERDVIYEEESRHHHSERMQHVVQLPPEPVQVLHRQQSQPAKESSPPREEAPPPPPPTEDSCAKKPRSRTKISLEALGILQSFIHDVGLYPDQEAIHTLSAQLDLPKHTIIKFFQNQRYHVKHHGKLKEHLGSAVDVAEYKDEELLTESEENDSEEGSEEMYKVEAEEENADKSKAAPAEIDQR | binds |
| Interleukin enhancer-binding factor 3 (protein, UniProt Q12906 1-894) MRPMRIFVNDDRHVMAKHSSVYPTQEELEAVQNMVSHTERALKAVSDWIDEQEKGSSEQAESDNMDVPPEDDSKEGAGEQKTEHMTRTLRGVMRVGLVAKGLLLKGDLDLELVLLCKEKPTTALLDKVADNLAIQLAAVTEDKYEILQSVDDAAIVIKNTKEPPLSLTIHLTSPVVREEMEKVLAGETLSVNDPPDVLDRQKCLAALASLRHAKWFQARANGLKSCVIVIRVLRDLCTRVPTWGPLRGWPLELLCEKSIGTANRPMGAGEALRRVLECLASGIVMPDGSGIYDPCEKEATDAIGHLDRQQREDITQSAQHALRLAAFGQLHKVLGMDPLPSKMPKKPKNENPVDYTVQIPPSTTYAITPMKRPMEEDGEEKSPSKKKKKIQKKEEKAEPPQAMNALMRLNQLKPGLQYKLVSQTGPVHAPIFTMSVEVDGNSFEASGPSKKTAKLHVAVKVLQDMGLPTGAEGRDSSKGEDSAEETEAKPAVVAPAPVVEAVSTPSAAFPSDATAEQGPILTKHGKNPVMELNEKRRGLKYELISETGGSHDKRFVMEVEVDGQKFQGAGSNKKVAKAYAALAALEKLFPDTPLALDANKKKRAPVPVRGGPKFAAKPHNPGFGMGGPMHNEVPPPPNLRGRGRGGSIRGRGRGRGFGGANHGGYMNAGAGYGSYGYGGNSATAGYSQFYSNGGHSGNASGGGGGGGGGSSGYGSYYQGDNYNSPVPPKHAGKKQPHGGQQKPSYGSGYQSHQGQQQSYNQSPYSNYGPPQGKQKGYNHGQGSYSYSNSYNSPGGGGGSDYNYESKFNYSGSGGRSGGNSYGSGGASYNPGSHGGYGGGSGGGSSYQGKQGGYSQSNYNSPGSGQNYSGPPSSYQSSQGGYGRNADHSMNYQYR | binds |
| Matrin-3 (protein, UniProt P43243 1-847) MSKSFQQSSLSRDSQGHGRDLSAAGIGLLAAATQSLSMPASLGRMNQGTARLASLMNLGMSSSLNQQGAHSALSSASTSSHNLQSIFNIGSRGPLPLSSQHRGDADQASNILASFGLSARDLDELSRYPEDKITPENLPQILLQLKRRRTEEGPTLSYGRDGRSATREPPYRVPRDDWEEKRHFRRDSFDDRGPSLNPVLDYDHGSRSQESGYYDRMDYEDDRLRDGERCRDDSFFGETSHNYHKFDSEYERMGRGPGPLQERSLFEKKRGAPPSSNIEDFHGLLPKGYPHLCSICDLPVHSNKEWSQHINGASHSRRCQLLLEIYPEWNPDNDTGHTMGDPFMLQQSTNPAPGILGPPPPSFHLGGPAVGPRGNLGAGNGNLQGPRHMQKGRVETSRVVHIMDFQRGKNLRYQLLQLVEPFGVISNHLILNKINEAFIEMATTEDAQAAVDYYTTTPALVFGKPVRVHLSQKYKRIKKPEGKPDQKFDQKQELGRVIHLSNLPHSGYSDSAVLKLAEPYGKIKNYILMRMKSQAFIEMETREDAMAMVDHCLKKALWFQGRCVKVDLSEKYKKLVLRIPNRGIDLLKKDKSRKRSYSPDGKESPSDKKSKTDGSQKTESSTEGKEQEEKSGEDGEKDTKDDQTEQEPNMLLESEDELLVDEEEAAALLESGSSVGDETDLANLGDVASDGKKEPSDKAVKKDGSASAAAKKKLKKVDKIEELDQENEAALENGIKNEENTEPGAESSENADDPNKDTSENADGQSDENKDDYTIPDEYRIGPYQPNVPVGIDYVIPKTGFYCKLCSLFYTNEEVAKNTHCSSLPHYQKLKKFLNKLAEERRQKKET | binds |

Second part, the binder after the results:

| binding | Binder |
| --- | --- |
| binds | Protein ENL (protein, UniProt Q03111 1-559) MDNQCTVQVRLELGHRAQLRKKPTTEGFTHDWMVFVRGPEQCDIQHFVEKVVFWLHDSFPKPRRVCKEPPYKVEESGYAGFIMPIEVHFKNKEEPRKVCFTYDLFLNLEGNPPVNHLRCEKLTFNNPTTEFRYKLLRAGGVMVMPEGADTVSRPSPDYPMLPTIPLSAFSDPKKTKPSHGSKDANKESSKTSKPHKVTKEHRERPRKDSESKSSSKELEREQAKSSKDTSRKLGEGRLPKEEKAPPPKAAFKEPKMALKETKLESTSPKGGPPPPPPPPPRASSKRPATADSPKPSAKKQKKSSSKGSRSAPGTSPRTSSSSSFSDKKPAKDKSSTRGEKVKAESEPREAKKALEVEESNSEDEASFKSESAQSSPSNSSSSSDSSSDSDFEPSQNHSQGPLRSMVEDLQSEESDEDDSSSGEEAAGKTNPGRDSRLSFSDSESDNSADSSLPSREPPPPQKPPPPNSKVSGRRSPESCSKPEKILKKGTYDKAYTDELVELHRRLMALRERNVLQQIVNLIEETGHFNVTNTTFDFDLFSLDETTVRKLQSCLEAVAT |
| binds | Treacle protein (protein, UniProt Q13428 1-1488) MAEARKRRELLPLIYHHLLRAGYVRAAREVKEQSGQKCFLAQPVTLLDIYTHWQQTSELGRKRKAEEDAALQAKKTRVSDPISTSESSEEEEEAEAETAKATPRLASTNSSVLGADLPSSMKEKAKAETEKAGKTGNSMPHPATGKTVANLLSGKSPRKSAEPSANTTLVSETEEEGSVPAFGAAAKPGMVSAGQADSSSEDTSSSSDETDVEGKPSVKPAQVKASSVSTKESPARKAAPAPGKVGDVTPQVKGGALPPAKRAKKPEEESESSEEGSESEEEAPAGTRSQVKASEKILQVRAASAPAKGTPGKGATPAPPGKAGAVASQTKAGKPEEDSESSSEESSDSEEETPAAKALLQAKASGKTSQVGAASAPAKESPRKGAAPAPPGKTGPAVAKAQAGKREEDSQSSSEESDSEEEAPAQAKPSGKAPQVRAASAPAKESPRKGAAPAPPRKTGPAAAQVQVGKQEEDSRSSSEESDSDREALAAMNAAQVKPLGKSPQVKPASTMGMGPLGKGAGPVPPGKVGPATPSAQVGKWEEDSESSSEESSDSSDGEVPTAVAPAQEKSLGNILQAKPTSSPAKGPPQKAGPVAVQVKAEKPMDNSESSEESSDSADSEEAPAAMTAAQAKPALKIPQTKACPKKTNTTASAKVAPVRVGTQAPRKAGTATSPAGSSPAVAGGTQRPAEDSSSSEESDSEEEKTGLAVTVGQAKSVGKGLQVKAASVPVKGSLGQGTAPVLPGKTGPTVTQVKAEKQEDSESSEEESDSEEAAASPAQVKTSVKKTQAKANPAAARAPSAKGTISAPGKVVTAAAQAKQRSPSKVKPPVRNPQNSTVLARGPASVPSVGKAVATAAQAQTGPEEDSGSSEEESDSEEEAETLAQVKPSGKTHQIRAALAPAKESPRKGAAPTPPGKTGPSAAQAGKQDDSGSSSEESDSDGEAPAAVTSAQVIKPPLIFVDPNRSPAGPAATPAQAQAASTPRKARASESTARSSSSESEDEDVIPATQCLTPGIRTNVVTMPTAHPRIAPKASMAGASSSKESSRISDGKKQEGPATQVSKKNPASLPLTQAALKVLAQKASEAQPPVARTQPSSGVDSAVGTLPATSPQSTSVQAKGTNKLRKPKLPEVQQATKAPESSDDSEDSSDSSSGSEEDGEGPQGAKSAHTLGPTPSRTETLVEETAAESSEDDVVAPSQSLLSGYMTPGLTPANSQASKATPKLDSSPSVSSTLAAKDDPDGKQEAKPQQAAGMLSPKTGGKEAASGTTPQKSRKPKKGAGNPQASTLALQSNITQCLLGQPWPLNEAQVQASVVKVLTELLEQERKKVVDTTKESSRKGWESRKRKLSGDQPAARTPRSKKKKKLGAGEGGEASVSPEKTSTTSKGKAKRDKASGDVKEKKGKGSLGSQGAKDEPEEELQKGMGTVEGGDQSNPKSKKEKKKSDKRKKDKEKKEKKKKAKKASTKDSESPSQKKKKKKKKTAEQTV |
| binds | UPF0568 protein C14orf166 (protein, UniProt Q9Y224 1-244) MFRRKLTALDYHNPAGFNCKDETEFRNFIVWLEDQKIRHYKIEDRGNLRNIHSSDWPKFFEKYLRDVNCPFKIQDRQEAIDWLLGLAVRLEYGDNAEKYKDLVPDNSKTADNATKNAEPLINLDVNNPDFKAGVMALANLLQIQRHDDYLVMLKAIRILVQERLTQDAVAKANQTKEGLPVALDKHILGFDTGDAVLNEAAQILRLLHIEELRELQTKINEAIVAVQAIIADPKTDHRLGKVGR |

No constants are given. Whether binding was seen depends on the method and setting. Binding seen in cells or lysates may run through a third protein. These calls come from enrichment with a bait or labelling near it, and not all partners need be listed.
